Measurements taken from patent publication US20010044449A1, “REMEDIES FOR DRUG ADDICTION” (priority 1997, published 2001).
For at least one compound, name, drawing or mass did not settle the structure.

Test system: Sprague Dawley strain (SD strain) male rats
Experiment: Conditioned place preference (CPP) method, psychic dependence induced by cocaine

SMILES: COC(=O)[C@H]1[C@@H](OC(=O)c2ccccc2)C[C@@H]2CC[C@H]1N2C [cocaine, reference compound]
- Period rats remained in the box conditioned by the drug (cocaine alone 4 mg/kg i.p.): significantly prolonged
- Period rats remained in the box conditioned by the drug (cocaine alone 10 mg/kg i.p. vs solvent control): significantly prolonged
